The record followed here is paper PMC11022886.

Chains of the proteins cited; added tags and fusions are not shown.
UniProt Q8BG32: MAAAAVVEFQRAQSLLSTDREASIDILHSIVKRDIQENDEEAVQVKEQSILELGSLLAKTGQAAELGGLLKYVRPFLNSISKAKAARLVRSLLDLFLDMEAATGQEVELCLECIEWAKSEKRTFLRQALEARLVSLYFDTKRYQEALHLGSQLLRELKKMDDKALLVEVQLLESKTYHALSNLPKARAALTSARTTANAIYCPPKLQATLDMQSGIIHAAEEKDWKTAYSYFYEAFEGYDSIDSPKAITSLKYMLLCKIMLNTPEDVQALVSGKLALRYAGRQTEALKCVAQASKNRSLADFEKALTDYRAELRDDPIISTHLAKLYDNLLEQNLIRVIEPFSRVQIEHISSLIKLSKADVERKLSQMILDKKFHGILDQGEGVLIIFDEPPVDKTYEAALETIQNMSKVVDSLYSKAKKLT

Results are given in words; binding and its absence hold for the method and conditions named. Binding seen in cells or lysates may run through a third protein. A result given as binding can be weak or reduced; the word gives no strength.

The target in this assay is Full-length mouse PSMD11 with FLAG epitope (mouse) (UniProt Q8BG32). The assay can be described thus: co-IP; HEK293T cells expressing each protein in separate cultures, NP-40 lysates mixed, anti-Flag M2 affinity gel, eluted with 3xFlag peptides, immunoblot with anti-HA or anti-FLAG. Background: Immunoblotting shows a protein as a band on a membrane.

As for “Mouse Midn (NM_021565.2) tagged N-terminally with an HA epitope (from UniProt Q3TPJ7-1)”, the binding entry was “binds”.
